Data from PubChem BioAssay AID308 (DTP/NCI, 2004).
The list does not hold the whole screen: it gathers tests that were run many times, whatever their T/C, doses with no T/C, and many T/C values between a quarter and a half above the control. Further doses and runs are listed elsewhere. T/C: endpoint of the treated group in % of that of the vehicle group. Some doses have a count of surviving animals in place of a T/C: the source files T/C as zero there, which appears to mark a toxic dose or a test without result, not a measured value. Some doses without a T/C left all or most animals alive at the check, yet need not have been tolerated: the source hardly ever lists a survival T/C far under the control, and the zero likely stands for such cases as well. Counts of survivors are from the toxicity check (mostly the fifth day) where no day follows; animals may have died later. Schedules are NCI's codes, taken here to give the interval after Q, in days (D) or hours (H), and the number of doses after X. Some schedules carry Z or #; the key to these is not given. Some entries hold several experiments; the results are listed from low to high. Where survival is the endpoint, this PubChem deposit counts one and a half times the control or more as active, and values a quarter to a half above the control carry no call in these data; other NCI protocols may use other cut-offs.

Tested on: BDF1 mice, L1210 6-MP/6-TG resistant leukemia ip, survival T/C
Assay: NCI In Vivo Anticancer Drug Screen. Data for tumor model L1210 Leukemia resistant to 6-MP and 6-Thioguanine; NSC 755, NSC 752 (intraperitoneal) in B6D2F1 (BDF1) mice
Settings: T/C endpoint: mean survival time, higher T/C = longer survival
Description: The antitumor activity of compounds was measured in mice bearing transplantable tumors. Survival or tumor size were measured and the results are expressed as the measurement made in the treated group (T) divided by the measurement made in the vehicle treated control group (C). The tumor model used in this assay is L1210 Leukemia resistant to 6-MP and 6-Thioguanine; NSC 755, NSC 752 (intraperitoneal) in B6D2F1 (BDF1) mice

Compound: O[C@H](CN1CC1)[C@@H](O)CN1CC1
- T/C (dose: 0.5 mg/kg/injection, schedule: Q01DX Z (ip), vehicle: saline): 144 % of control
- survivor count (dose: 2.0 mg/kg/injection, schedule: Q01DX Z (ip), vehicle: saline): 6 of 6
- survivor count (dose: 3.75 mg/kg/injection, schedule: Q01DX Z (ip), vehicle: saline): 6 of 6
- survivor count (dose: 5.0 mg/kg/injection, schedule: Q01DX Z (ip), vehicle: saline): 0 of 6
- survivor count (dose: 7.5 mg/kg/injection, schedule: Q01DX Z (ip), vehicle: saline): 0 of 6
- survivor count (dose: 10.0 mg/kg/injection, schedule: Q01DX Z (ip), vehicle: saline): 0 of 6
- T/C (dose: 45.0 micrograms/kg/injection, schedule: Q01DX Z (ip), vehicle: saline): 137 % of control

Compound: Ic1ncnc2nc[nH]c12
- survivor count (dose: 500.0 mg/kg/injection, schedule: Q01DX Z (ip), vehicle: carboxymethylcellulose (CMC)): 1 of 6

Compound: CSc1ncnc2nc[nH]c12
- survivor count (dose: 180.0 mg/kg/injection, schedule: Q01DX001 (ip), vehicle: carboxymethylcellulose (CMC)): 6 of 10
- survivor count (dose: 250.0 mg/kg/injection, schedule: Q01DX Z (ip), vehicle: carboxymethylcellulose (CMC)): 2 of 6
- survivor count (dose: 270.0 mg/kg/injection, schedule: Q01DX001 (ip), vehicle: carboxymethylcellulose (CMC)): 6 of 10
- survivor count (dose: 400.0 mg/kg/injection, schedule: Q01DX001 (ip), vehicle: carboxymethylcellulose (CMC)): 0 of 9 and 2 of 10
- survivor count (dose: 600.0 mg/kg/injection, schedule: Q01DX001 (ip), vehicle: carboxymethylcellulose (CMC)): 0 of 10

Compound: NC(Cc1ccc(N(CCCl)CCCl)cc1)C(=O)O (stereo not given)
- T/C (dose: 0.25 mg/kg/injection, schedule: Q01DX Z (ip), vehicle: carboxymethylcellulose (CMC)): 144 % of control
- T/C (dose: 1.87 mg/kg/injection, schedule: Q01DX Z (ip), vehicle: carboxymethylcellulose (CMC)): 135 % of control
- survivor count (dose: 10.0 mg/kg/injection, schedule: Q01DX Z (ip), vehicle: carboxymethylcellulose (CMC)): 2 of 6
- survivor count (dose: 15.0 mg/kg/injection, schedule: Q01DX Z (ip), vehicle: carboxymethylcellulose (CMC)): 4 of 6
- survivor count (dose: 20.0 mg/kg/injection, schedule: Q01DX Z (ip), vehicle: carboxymethylcellulose (CMC)): 3 of 6

Compound: Nc1nc2n[nH]nc2c(=O)[nH]1
- survivor count (dose: 250.0 mg/kg/injection, schedule: Q01DX Z (ip), vehicle: water): 6 of 6
- survivor count (dose: 300.0 mg/kg/injection, schedule: Q01DX Z (ip), vehicle: water): 4 of 6
- survivor count (dose: 350.0 mg/kg/injection, schedule: Q01DX Z (ip), vehicle: water): 5 of 6

Compound: CN(C)[C@@H]1C(=O)C(C(=O)NCc2nc3[nH]cnc(=S)c3[nH]2)=C(O)[C@@]2(O)C(=O)C3=C(O)c4c(O)cccc4[C@@](C)(O)[C@H]3C[C@@H]12
- survivor count (dose: 200.0 mg/kg/injection, schedule: Q01DX009 (ip), vehicle: carboxymethylcellulose (CMC)): 6 of 6

Compound: C=CCSc1ncnc2c1ncn2C1OC(CO)C(O)C1O (stereo not given)
- survivor count (dose: 400.0 mg/kg/injection, schedule: Q01DX015 (ip), vehicle: saline): 5 of 6

Compound: O=c1[nH]cnc2c1nnn2C1OC(CO)C(O)C1O (stereo not given)
- T/C (dose: 76.0 mg/kg/injection, schedule: Q01DX009 (ip), vehicle: saline): 138 and 146 % of control
- T/C (dose: 114.0 mg/kg/injection, schedule: Q01DX009 (ip), vehicle: saline): 140 % of control
- T/C (dose: 171.0 mg/kg/injection, schedule: Q01DX009 (ip), vehicle: saline): 139 % of control

Compound: CCCSc1ncnc2nc[nH]c12
- survivor count (dose: 350.0 mg/kg/injection, schedule: Q01DX Z (ip), vehicle: other): 0 of 6

Compound: c1ccc(CNc2ncnc3[nH]ncc23)cc1
- survivor count (dose: 75.0 mg/kg/injection, schedule: Q01DX Z (ip), vehicle: carboxymethylcellulose (CMC)): 5 of 6
- survivor count (dose: 100.0 mg/kg/injection, schedule: Q01DX Z (ip), vehicle: carboxymethylcellulose (CMC)): 2 of 6

Compound: N#[N+]c1cnc([O-])[nH]c1=O
- T/C (dose: 1.87 mg/kg/injection, schedule: Q01DX Z (ip), vehicle: alkali diluted with saline): 127 % of control
- T/C (dose: 3.75 mg/kg/injection, schedule: Q01DX Z (ip), vehicle: alkali diluted with saline): 135 % of control
- survivor count (dose: 20.0 mg/kg/injection, schedule: Q01DX Z (ip), vehicle: alkali diluted with saline): 5 of 6
- survivor count (dose: 40.0 mg/kg/injection, schedule: Q01DX Z (ip), vehicle: alkali diluted with saline): 0 of 6

Compound: NS(=O)(=O)c1ncnc2nc[nH]c12
- T/C (dose: 4.0 mg/kg/injection, schedule: Q01DX Z (ip), vehicle: carboxymethylcellulose (CMC)): 129 % of control
- T/C (dose: 8.0 mg/kg/injection, schedule: Q01DX Z (ip), vehicle: carboxymethylcellulose (CMC)): 136 % of control
- T/C (dose: 12.0 mg/kg/injection, schedule: Q01DX Z (ip), vehicle: saline): 132 % of control
- survivor count (dose: 100.0 mg/kg/injection, schedule: Q01DX Z (ip), vehicle: saline): 4 of 7

Compound: CC(=O)O[C@]1(C(C)=O)CC[C@H]2[C@@H]3C[C@H](C)C4=CC(=O)C=C[C@]4(C)[C@@]3(F)[C@@H](O)C[C@@]21C
- survivor count (dose: 75.0 mg/kg/injection, schedule: Q01DX Z (sc), vehicle: steroid suspending solution): 6 of 6
- survivor count (dose: 150.0 mg/kg/injection, schedule: Q01DX Z (sc), vehicle: steroid suspending solution): 6 of 6

Compound: CCCSc1nc(N)nc2nc[nH]c12
- survivor count (dose: 200.0 mg/kg/injection, schedule: Q01DX Z (ip), vehicle: carboxymethylcellulose (CMC)): 6 of 7
- survivor count (dose: 300.0 mg/kg/injection, schedule: Q01DX Z (ip), vehicle: carboxymethylcellulose (CMC)): 0 of 7

Compound: Nc1nc(=S)c2ncn(C3OC(COC(=O)c4ccc(Cl)cc4)C(OC(=O)c4ccc(Cl)cc4)C3OC(=O)c3ccc(Cl)cc3)c2[nH]1 (stereo not given)
- survivor count (dose: 25.0 mg/kg/injection, schedule: Q01DX015 (ip), vehicle: carboxymethylcellulose (CMC)): 6 of 6
- survivor count (dose: 50.0 mg/kg/injection, schedule: Q01DX015 (ip), vehicle: carboxymethylcellulose (CMC)): 6 of 6
- survivor count (dose: 200.0 mg/kg/injection, schedule: Q01DX015 (ip), vehicle: carboxymethylcellulose (CMC)): 6 of 6

Compound: S=c1nc[nH]c2c1ncn2CN1CCCCC1
- survivor count (dose: 25.0 mg/kg/injection, schedule: Q01DX009 (ip), vehicle: other): 6 of 6
- survivor count (dose: 100.0 mg/kg/injection, schedule: Q01DX009 (ip), vehicle: other): 6 of 6
- survivor count (dose: 200.0 mg/kg/injection, schedule: Q01DX009 (ip), vehicle: other): 6 of 6

Compound: Nc1ccc(OC(=O)Oc2ccc(N)cc2)cc1
- survivor count (dose: 500.0 mg/kg/injection, schedule: Q01DX Z (ip), vehicle: saline): 3 of 6

Compound: Cc1c(O)ccc(=O)n1O
- T/C (dose: 110.0 mg/kg/injection, schedule: Q01DX Z (ip), vehicle: other): 127 % of control
- survivor count (dose: 247.0 mg/kg/injection, schedule: Q01DX Z (ip), vehicle: other): 6 of 6
